According to paper doi:10.1101/2021.11.16.21266115:
These are yes or no findings as the source states them, for the method shown. In cells and extracts the contact can be indirect. Some binding calls cover weakened binding; strength is not graded here.

Chains of the proteins cited; added tags and fusions are not shown.
UniProt Q9ULZ3: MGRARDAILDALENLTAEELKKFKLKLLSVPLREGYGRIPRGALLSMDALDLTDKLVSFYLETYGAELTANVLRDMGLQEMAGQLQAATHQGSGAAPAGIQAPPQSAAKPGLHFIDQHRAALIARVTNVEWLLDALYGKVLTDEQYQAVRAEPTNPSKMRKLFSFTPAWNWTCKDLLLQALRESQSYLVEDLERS

Target: apoptosis-associated speck-like protein containing CARD (ASC) (human (endogenous in HBECs)) (UniProt Q9ULZ3)
Experiment: co-IP

Binder	binding
retinoic acid-inducible gene I (RIG-I) (protein, UniProt O95786 1-925) MTTEQRRSLQAFQDYIRKTLDPTYILSYMAPWFREEEVQYIQAEKNNKGPMEAATLFLKFLLELQEEGWFRGFLDALDHAGYSGLYEAIESWDFKKIEKLEEYRLLLKRLQPEFKTRIIPTDIISDLSECLINQECEEILQICSTKGMMAGAEKLVECLLRSDKENWPKTLKLALEKERNKFSELWIVEKGIKDVETEDLEDKMETSDIQIFYQEDPECQNLSENSCPPSEVSDTNLYSPFKPRNYQLELALPAMKGKNTIICAPTGCGKTFVSLLICEHHLKKFPQGQKGKVVFFANQIPVYEQQKSVFSKYFERHGYRVTGISGATAENVPVEQIVENNDIIILTPQILVNNLKKGTIPSLSIFTLMIFDECHNTSKQHPYNMIMFNYLDQKLGGSSGPLPQVIGLTASVGVGDAKNTDEALDYICKLCASLDASVIATVKHNLEELEQVVYKPQKFFRKVESRISDKFKYIIAQLMRDTESLAKRICKDLENLSQIQNREFGTQKYEQWIVTVQKACMVFQMPDKDEESRICKALFLYTSHLRKYNDALIISEHARMKDALDYLKDFFSNVRAAGFDEIEQDLTQRFEEKLQELESVSRDPSNENPKLEDLCFILQEEYHLNPETITILFVKTRALVDALKNWIEGNPKLSFLKPGILTGRGKTNQNTGMTLPAQKCILDAFKASGDHNILIATSVADEGIDIAQCNLVILYEYVGNVIKMIQTRGRGRARGSKCFLLTSNAGVIEKEQINMYKEKMMNDSILRLQTWDEAVFREKILHIQTHEKFIRDSQEKPKPVPDKENKKLLCRKCKALACYTADVRVIEECHYTVLGDAFKECFVSRPHPKPKQFSSFEKRAKIFCARQNCSHDWGIHVKYKTFEIPVIKIESFVVEDIATGVQTLYSKWKDFHFEKIPFDPAEMSK	binds
melanoma differentiation-associated protein 5 (MDA5) (protein, UniProt Q9BYX4 1-1025) MSNGYSTDENFRYLISCFRARVKMYIQVEPVLDYLTFLPAEVKEQIQRTVATSGNMQAVELLLSTLEKGVWHLGWTREFVEALRRTGSPLAARYMNPELTDLPSPSFENAHDEYLQLLNLLQPTLVDKLLVRDVLDKCMEEELLTIEDRNRIAAAENNGNESGVRELLKRIVQKENWFSAFLNVLRQTGNNELVQELTGSDCSESNAEIENLSQVDGPQVEEQLLSTTVQPNLEKEVWGMENNSSESSFADSSVVSESDTSLAEGSVSCLDESLGHNSNMGSDSGTMGSDSDEENVAARASPEPELQLRPYQMEVAQPALEGKNIIICLPTGSGKTRVAVYIAKDHLDKKKKASEPGKVIVLVNKVLLVEQLFRKEFQPFLKKWYRVIGLSGDTQLKISFPEVVKSCDIIISTAQILENSLLNLENGEDAGVQLSDFSLIIIDECHHTNKEAVYNNIMRHYLMQKLKNNRLKKENKPVIPLPQILGLTASPGVGGATKQAKAEEHILKLCANLDAFTIKTVKENLDQLKNQIQEPCKKFAIADATREDPFKEKLLEIMTRIQTYCQMSPMSDFGTQPYEQWAIQMEKKAAKEGNRKERVCAEHLRKYNEALQINDTIRMIDAYTHLETFYNEEKDKKFAVIEDDSDEGGDDEYCDGDEDEDDLKKPLKLDETDRFLMTLFFENNKMLKRLAENPEYENEKLTKLRNTIMEQYTRTEESARGIIFTKTRQSAYALSQWITENEKFAEVGVKAHHLIGAGHSSEFKPMTQNEQKEVISKFRTGKINLLIATTVAEEGLDIKECNIVIRYGLVTNEIAMVQARGRARADESTYVLVAHSGSGVIEHETVNDFREKMMYKAIHCVQNMKPEEYAHKILELQMQSIMEKKMKTKRNIAKHYKNNPSLITFLCKNCSVLACSGEDIHVIEKMHHVNMTPEFKELYIVRENKALQKKCADYQINGEIICKCGQAWGTMMVHKGLDLPCLKIRNFVVVFKNNSTKKQYKKWVELPITFPNLDYSECCLFSDED	no binding
